Laboratory results from PMC9007350, “Aurintricarboxylic acid is a canonical disruptor of the TAZ-TEAD transcriptional complex” (PLoS ONE, 2022).
This continues a long series; more values of the same kind are listed elsewhere.

System: TC/TEAD transcriptional profile in TC-expressing NIH3T3 cells
Test: Bulk RNA-Seq, differential gene expression and GSEA (TC ATA v. TC DMSO)
Assay type: cell-based, murine
Details: TC ATA v. TC DMSO
Method: NIH3T3 and HEK293 cells were obtained from the American Type Tissue Collection (ATCC, Manassas, VA) and cultured in DMEM containing 10% fetal bovine serum and penicillin/streptomycin. A TEAD dual luciferase reporter assay was performed as previously described. Cells were treated with vehicle control or ATA (10 μM) for 48 h before measuring the luciferase activity or processing the samples for RNA extraction. Each experiment was repeated at least 2-3 times. NIH3T3 cells were used. The extracted RNA (RNeasy Mini, Qiagen) from treated cells was either used for qPCR measurements or sent for bulk RNA-Seq. Sequencing runs were performed on an Illumina HiSeq 4000 sequencer (Genewiz). Subsequent bioinformatics analysis was performed in the Galaxy Project platform. Paired end reads were aligned to the murine genome ([…]2 [27]. Raw count files were generated with featureCounts using a corresponding GTF reference. Differential gene expression analysis was performed with DESeq2 [29]. Transcripts were considered to be differentially expressed if the false discovery rate < 0.05 and Log2FC > 2. When performing differential gene expression for GSEA analysis, the Limma package was used (<5 CPM filtering) with t-scores used for rank statistics. GSEA plots and statistics were generated with FGSEA with custom gene sets. Raw sequencing reads and processed files have been deposited in the GEO repository (data will be uploaded upon manuscript acceptance). The Universal Probe Library probes (Roche) and the associated primer sequences for the qPCR targets are listed below: […]

## O=C(O)C1=CC(=C(c2ccc(O)c(C(=O)O)c2)c2ccc(O)c(C(=O)O)c2)C=CC1=O [ATA, aurintricarboxylic acid]
Tead4
  Log2 Fold Change: -0.2498
Thra
  Log2 Fold Change: 0.2545
Timp2
  Log2 Fold Change: 0.2462
Tjp2
  Log2 Fold Change: -0.2192
Tle2
  Log2 Fold Change: 0.5839
Tnc
  Log2 Fold Change: -0.3143
Tnfaip2
  Log2 Fold Change: -0.2543
Tnk2
  Log2 Fold Change: -0.2124
Tob1
  Log2 Fold Change: 0.2928
Tom1
  Log2 Fold Change: 0.43
Tsr1
  Log2 Fold Change: -0.2296
Ttn
  Log2 Fold Change: 0.4567
Txnrd1
  Log2 Fold Change: -0.1991
Uap1l1
  Log2 Fold Change: 0.2452
Ugt1a7c
  Log2 Fold Change: 0.6553
Utp4
  Log2 Fold Change: -0.2274
Uvrag
  Log2 Fold Change: 0.279
Vdr
  Log2 Fold Change: 0.5001
Vegfd
  Log2 Fold Change: 0.2471
Vgf
  Log2 Fold Change: -0.3687
Vwa5a
  Log2 Fold Change: 0.294
Wnt6
  Log2 Fold Change: 0.9495
Xdh
  Log2 Fold Change: 0.3048
Xirp2
  Log2 Fold Change: 0.5497
Zfp324
  Log2 Fold Change: 0.3369
Zfpm2
  Log2 Fold Change: -0.5868
Gene 2510009E07Rik
  Log2 Fold Change: 0.5258
Gene 2810025M15Rik
  Log2 Fold Change: -0.3219
Gene 2900042K21Rik
  Log2 Fold Change: -1.025
Gene 2900052L18Rik
  Log2 Fold Change: 0.6386
Gene 4930523C07Rik
  Log2 Fold Change: 0.5467
Gene 4933431E20Rik
  Log2 Fold Change: 0.5936
Gene AI506816
  Log2 Fold Change: -0.5762
Gene AU020206
  Log2 Fold Change: -0.4278
Gene Abcb1b
  Log2 Fold Change: -0.3097
Gene Abcc4
  Log2 Fold Change: 0.3743
Gene Abcd3
  Log2 Fold Change: 0.2172
Gene Abhd17a
  Log2 Fold Change: -0.2859
Gene Abl2
  Log2 Fold Change: -0.2791
Gene Ablim1
  Log2 Fold Change: 0.3683
Gene Abra
  Log2 Fold Change: 0.7907
Gene Acss2
  Log2 Fold Change: 0.4226
Gene Acta2
  Log2 Fold Change: 0.959
Gene Actc1
  Log2 Fold Change: -0.9277
Gene Actn2
  Log2 Fold Change: 1.014
Gene Actn3
  Log2 Fold Change: 0.3752
Gene Actr3b
  Log2 Fold Change: 1.112
Gene Adam23
  Log2 Fold Change: 0.5896
Gene Adamts1
  Log2 Fold Change: 0.3728
Gene Adamts2
  Log2 Fold Change: 0.4007
Gene Adamts5
  Log2 Fold Change: 0.3878
Gene Adamts9
  Log2 Fold Change: 0.7758
Gene Adamts12
  Log2 Fold Change: 0.3964
Gene Adcy7
  Log2 Fold Change: -0.6069
Gene Adgrl1
  Log2 Fold Change: 0.2609
Gene Adh7
  Log2 Fold Change: 0.3304
Gene Adm
  Log2 Fold Change: 0.8772
Gene Adora2b
  Log2 Fold Change: -0.3391
Gene Adra1b
  Log2 Fold Change: 0.8094
Gene Adssl1
  Log2 Fold Change: 0.5943
Gene Aff3
  Log2 Fold Change: 0.4724
Gene Agt
  Log2 Fold Change: 1.509
Gene Ahrr
  Log2 Fold Change: 1.0715
Gene Ak3
  Log2 Fold Change: 0.2457
Gene Akr1c14
  Log2 Fold Change: 0.4919
Gene Alcam
  Log2 Fold Change: -0.4577
Gene Aldh1a1
  Log2 Fold Change: 0.8976
Gene Aldh1a7
  Log2 Fold Change: 0.9023
Gene Aldh3a1
  Log2 Fold Change: 0.6906
Gene Aloxe3
  Log2 Fold Change: -1.096
Gene Alpk3
  Log2 Fold Change: 0.7828
Gene Anapc10
  Log2 Fold Change: 0.3118
Gene Ankrd9
  Log2 Fold Change: -0.3164
Gene Ankrd34a
  Log2 Fold Change: 0.358
Gene Antxr1
  Log2 Fold Change: 0.4939
Gene Aoc3
  Log2 Fold Change: 1.3253
Gene Apba1
  Log2 Fold Change: 1.356
Gene Apobec2
  Log2 Fold Change: 0.5887
Gene Apol9a
  Log2 Fold Change: 0.4332
Gene Aqp1
  Log2 Fold Change: 0.311
Gene Arfgap3
  Log2 Fold Change: 0.2502
Gene Arhgap22
  Log2 Fold Change: -0.3046
Gene Arhgap28
  Log2 Fold Change: -0.2569
Gene Arl4d
  Log2 Fold Change: 0.4285
Gene Arsa
  Log2 Fold Change: 0.2545
Gene Art3
  Log2 Fold Change: 0.682
Gene Arv1
  Log2 Fold Change: -0.3229
Gene Asap1
  Log2 Fold Change: 0.1985
Gene Aspn
  Log2 Fold Change: 1.692
Gene Atg16l2
  Log2 Fold Change: 0.5753
Gene Atoh8
  Log2 Fold Change: 1.29
Gene Atp6v0a1
  Log2 Fold Change: 0.3381
Gene Atp6v0d1
  Log2 Fold Change: 0.3858
Gene B3gnt5
  Log2 Fold Change: -0.6705
Gene B3gnt9
  Log2 Fold Change: 0.4625
Gene B4galnt3
  Log2 Fold Change: -0.9756
Gene BC023105
  Log2 Fold Change: -1.117
Gene BC055324
  Log2 Fold Change: -0.2339
Gene Bax
  Log2 Fold Change: 0.2261
Gene Bdh2
  Log2 Fold Change: 0.896
Gene Bmf
  Log2 Fold Change: 1.607
Gene Bmper
  Log2 Fold Change: 0.5521
Gene Bms1
  Log2 Fold Change: -0.2343
Gene Bnc1
  Log2 Fold Change: -0.4619
Gene Bst2
  Log2 Fold Change: 0.3077
Gene Btc
  Log2 Fold Change: -1.307
Gene C1qtnf1
  Log2 Fold Change: 0.7136
Gene C1qtnf6
  Log2 Fold Change: 0.6079
Gene C1ra
  Log2 Fold Change: 0.2648
Gene C1s1
  Log2 Fold Change: 1.162
Gene C1s2
  Log2 Fold Change: 1.065
Gene Cacna1a
  Log2 Fold Change: 0.2433
Gene Cacna1c
  Log2 Fold Change: 0.419
Gene Cacna1g
  Log2 Fold Change: 0.7268
Gene Cad
  Log2 Fold Change: -0.276
Gene Capn5
  Log2 Fold Change: 0.4335
Gene Capn6
  Log2 Fold Change: 0.413
Gene Carmn
  Log2 Fold Change: 1.388
Gene Casp4
  Log2 Fold Change: 0.5164
Gene Cat
  Log2 Fold Change: 0.2291
Gene Cbr4
  Log2 Fold Change: 0.3736
Gene Ccbe1
  Log2 Fold Change: -1.0635
Gene Ccdc61
  Log2 Fold Change: -0.2496
Gene Ccl2
  Log2 Fold Change: 0.3728
Gene Ccn5
  Log2 Fold Change: 2.113
Gene Ccnd1
  Log2 Fold Change: -0.2482
Gene Ccnyl1
  Log2 Fold Change: -0.1904
Gene Ccsap
  Log2 Fold Change: -0.247
Gene Cct2
  Log2 Fold Change: -0.2088
Gene Cd200
  Log2 Fold Change: -1.032
Gene Cd276
  Log2 Fold Change: 0.2233
Gene Cd300lg
  Log2 Fold Change: 1.4
Gene Cdc40
  Log2 Fold Change: -0.2212
Gene Cdca7
  Log2 Fold Change: -0.1991
Gene Cdh11
  Log2 Fold Change: 0.298
Gene Cdh15
  Log2 Fold Change: -1.144
Gene Cdkn1a
  Log2 Fold Change: 0.2603
Gene Cdon
  Log2 Fold Change: 0.5124
Gene Cemip
  Log2 Fold Change: 0.5859
Gene Cfap36
  Log2 Fold Change: -0.3751
Gene Cfl2
  Log2 Fold Change: -0.1976
Gene Chac1
  Log2 Fold Change: -0.2399
Gene Chfr
  Log2 Fold Change: 0.2966
Gene Chmp2b
  Log2 Fold Change: 0.2323
Gene Chpf2
  Log2 Fold Change: 0.2848
Gene Chtf18
  Log2 Fold Change: -0.2476
Gene Cited2
  Log2 Fold Change: 0.4541
Gene Cluh
  Log2 Fold Change: -0.1887
Gene Cmya5
  Log2 Fold Change: 0.5159
Gene Cnksr3
  Log2 Fold Change: 0.2811
Gene Col4a5
  Log2 Fold Change: 0.2799
Gene Col5a2
  Log2 Fold Change: 0.2698
Gene Col6a1
  Log2 Fold Change: 0.3903
Gene Col11a1
  Log2 Fold Change: 0.5083
Gene Col16a1
  Log2 Fold Change: 0.3017
Gene Colec12
  Log2 Fold Change: 0.4192
Gene Copz2
  Log2 Fold Change: 0.3357
Gene Coq9
  Log2 Fold Change: 0.2858
Gene Cox6a2
  Log2 Fold Change: 0.5376
Gene Cox8b
  Log2 Fold Change: 0.7326
Gene Cped1
  Log2 Fold Change: 0.6959
Gene Cpne8
  Log2 Fold Change: -0.3134
Gene Cpq
  Log2 Fold Change: 0.4083
Gene Crabp1
  Log2 Fold Change: -0.8383
Gene Crebl2
  Log2 Fold Change: 0.2826
Gene Crip2
  Log2 Fold Change: -0.3501
Gene Crlf1
  Log2 Fold Change: 0.7651
Gene Csad
  Log2 Fold Change: 0.2653
Gene Csdc2
  Log2 Fold Change: 0.7714
Gene Csrp1
  Log2 Fold Change: 0.3415
Gene Ctdsp2-ps
  Log2 Fold Change: 0.2838
Gene Ctsa
  Log2 Fold Change: 0.2699
Gene Ctso
  Log2 Fold Change: 0.4681
Gene Cttnbp2nl
  Log2 Fold Change: -0.2908
Gene Cx3cl1
  Log2 Fold Change: 0.4055
Gene Cxcl5
  Log2 Fold Change: 0.6442
Gene Cxcl12
  Log2 Fold Change: 0.7796
Gene Cyb5a
  Log2 Fold Change: 0.3792
Gene Cyp1a1
  Log2 Fold Change: 0.8267
Gene Cyp1b1
  Log2 Fold Change: 0.9979
Gene Cyp4v3
  Log2 Fold Change: 0.8065
Gene Cyp26b1
  Log2 Fold Change: 0.8568
Gene Cyp51
  Log2 Fold Change: 0.2145
Gene D030025P21Rik
  Log2 Fold Change: -0.817
Gene Daam1
  Log2 Fold Change: -0.4049
Gene Daam2
  Log2 Fold Change: 1.096
Gene Dab2
  Log2 Fold Change: -0.189
Gene Dact3
  Log2 Fold Change: 0.3342
Gene Dap
  Log2 Fold Change: 0.2446
Gene Dbn1
  Log2 Fold Change: -0.2854
Gene Dbp
  Log2 Fold Change: 0.5516
Gene Dcaf6
  Log2 Fold Change: 0.2596
Gene Dcbld2
  Log2 Fold Change: -0.2221
Gene Dclk1
  Log2 Fold Change: 0.2203
Gene Ddit4
  Log2 Fold Change: 0.1825
Gene Dhrs9
  Log2 Fold Change: 0.3599
Gene Diras2
  Log2 Fold Change: 0.8102
Gene Dkk2
  Log2 Fold Change: -0.6215
Gene Dnajb4
  Log2 Fold Change: 0.2471
Gene Dock7
  Log2 Fold Change: -0.1804
Gene Dock8
  Log2 Fold Change: -0.5377
Gene Dpp7
  Log2 Fold Change: 0.2978
Gene Dpysl3
  Log2 Fold Change: -0.327
Gene Dstn
  Log2 Fold Change: 0.2475
Gene Dusp1
  Log2 Fold Change: 0.337
Gene Dusp9
  Log2 Fold Change: -0.3562
Gene Dynap
  Log2 Fold Change: -1.032
Gene Dync1h1
  Log2 Fold Change: -0.2247
Gene Dync2li1
  Log2 Fold Change: 0.3089
Gene Ech1
  Log2 Fold Change: 0.3451
Gene Edil3
  Log2 Fold Change: -1.0691
Gene Eef1a2
  Log2 Fold Change: 0.5368
Gene Efnb2
  Log2 Fold Change: -0.4395
Gene Egr1
  Log2 Fold Change: 0.6964
Gene Emb
  Log2 Fold Change: 0.4199
Gene Emilin1
  Log2 Fold Change: 0.632
Gene Emilin2
  Log2 Fold Change: 0.3255
Gene Emp2
  Log2 Fold Change: 0.1909
Gene En1
  Log2 Fold Change: 0.3071
Gene Enc1
  Log2 Fold Change: -0.2049
Gene Epg5
  Log2 Fold Change: -0.2899
Gene Ephx1
  Log2 Fold Change: 0.682
Gene Erbin
  Log2 Fold Change: 0.3234
Gene Etv4
  Log2 Fold Change: -0.4971
